PubChem BioAssay AID504784, Drosophila RNAi Screening Center | 2011

Test: 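Search for regulators of lipid droplet storage in oleate-fed fly cells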 (primary screen)
System: Drosophila Kc167 embryonic cells
Reagent: long dsRNA against Drosophila genes, about 250 ng dsRNA per well
Timing: 4 days
Challenge: cells fed 400 µM oleic acid bound to BSA
Detection: 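Cells imaged and segmented; ratio of lipid droplet area to nuclear area, log-transformed, then normalised as a B-score over the screen; higher means more stored lipid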
Direction: droplet/nuclear area B-score: higher = more stored lipid (overstorage)
The deposit covers about 17,000 reagents; below is a random part of those with a known target gene and a result. 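Each column is one replicate's B-score; the combined score over replicates was not deposited, so single values may mislead.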 The numbers tell different reagents against one gene apart. A plus sign joins genes that one reagent is predicted to hit. Not all columns of the deposit are shown.

CG40198 (GeneID 3354922) showed droplet/nuclear area B-score, replicate 1 = 0.0515. prel (GeneID 35969) gave droplet/nuclear area B-score, replicate 1 = 0.00239. After knock-down of CG11902 (GeneID 43070), the screen gave droplet/nuclear area B-score, replicate 1 = -1.58. For CG32846 (GeneID 318244), the entry reads droplet/nuclear area B-score, replicate 1 = -1.16. With knock-down of CG5290 (GeneID 39998), the record shows droplet/nuclear area B-score, replicate 1 = 0.442. yata (GeneID 43508) gave droplet/nuclear area B-score, replicate 1 = -2.06.

Cyp6a15Psi (GeneID 3772535) showed droplet/nuclear area B-score, replicate 1 = 0.143. For CG10053 (GeneID 40871) the deposit lists droplet/nuclear area B-score, replicate 1 = -0.00355. With knock-down of alpha-Est4 (GeneID 40906), the record shows droplet/nuclear area B-score, replicate 1 = -0.269. Silencing of S-Lap8 (GeneID 36844) #1 resulted in: droplet/nuclear area B-score, replicate 1 = -1.12. S-Lap8 (GeneID 36844) #2 gave droplet/nuclear area B-score, replicate 1 = 0.561. Knock-down of Rab9Db + Rab9D + Rab9E resulted in: droplet/nuclear area B-score, replicate 1 = -1.59.

JYalpha (retired record) + JYalpha scored droplet/nuclear area B-score, replicate 1 = -0.101. For CG34057 (GeneID 3885645), the entry reads droplet/nuclear area B-score, replicate 1 = 0.704. With knock-down of Snx6 (GeneID 34126), the record shows droplet/nuclear area B-score, replicate 1 = -2.35. Silencing of CG18823 (GeneID 59184) came out at: droplet/nuclear area B-score, replicate 1 = -0.387. With knock-down of CG33292 (retired record) (GeneID 2768953), the record shows droplet/nuclear area B-score, replicate 1 = 0.582. Depletion of ths (GeneID 36258) #1 came out at: droplet/nuclear area B-score, replicate 1 = 2.31.

With knock-down of ths (GeneID 36258) #2 the results were droplet/nuclear area B-score, replicate 1 = -0.0467. With knock-down of Gr2a (GeneID 31093), the record shows droplet/nuclear area B-score, replicate 1 = 0.581. Ncoa6 (GeneID 33761) #1 gave droplet/nuclear area B-score, replicate 1 = 0.0428. Ncoa6 (GeneID 33761) #2 scored droplet/nuclear area B-score, replicate 1 = -2.14. After knock-down of CG12301 (GeneID 39689), the screen gave droplet/nuclear area B-score, replicate 1 = 0.344. CG3776 (GeneID 37996) showed droplet/nuclear area B-score, replicate 1 = 2.58.

After knock-down of CG14630 (GeneID 44620) #1, the screen gave droplet/nuclear area B-score, replicate 1 = -1.88. Depletion of CG14630 (GeneID 44620) #2 resulted in: droplet/nuclear area B-score, replicate 1 = -1.15. ru (GeneID 44856) gave droplet/nuclear area B-score, replicate 1 = 0.305.

Part of the list above, reformatted.
gene	dsRNA no.	droplet/nuclear area B-score, replicate 1
CG33292 (retired record) (GeneID 2768953)	1	0.582
ths (GeneID 36258)	1	2.31
ths (GeneID 36258)	2	-0.0467
